Reference: doi:10.1101/2025.08.29.668156
These are yes or no findings as the source states them, for the method shown. Binding seen in cells or lysates may run through a third protein. A yes stands for co-enrichment or nearness to the bait. Other partners may have been found. For part of these data: Sequences can lack the tags named with a protein.

By UniProt entry, the sequences of proteins in these tests, tags left out.
UniProt P20339: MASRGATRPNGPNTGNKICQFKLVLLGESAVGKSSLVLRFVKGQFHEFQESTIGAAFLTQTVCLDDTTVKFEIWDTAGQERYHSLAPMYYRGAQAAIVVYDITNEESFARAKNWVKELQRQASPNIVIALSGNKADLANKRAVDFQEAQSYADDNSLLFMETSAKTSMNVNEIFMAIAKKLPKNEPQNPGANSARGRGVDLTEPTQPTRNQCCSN
UniProt P02545: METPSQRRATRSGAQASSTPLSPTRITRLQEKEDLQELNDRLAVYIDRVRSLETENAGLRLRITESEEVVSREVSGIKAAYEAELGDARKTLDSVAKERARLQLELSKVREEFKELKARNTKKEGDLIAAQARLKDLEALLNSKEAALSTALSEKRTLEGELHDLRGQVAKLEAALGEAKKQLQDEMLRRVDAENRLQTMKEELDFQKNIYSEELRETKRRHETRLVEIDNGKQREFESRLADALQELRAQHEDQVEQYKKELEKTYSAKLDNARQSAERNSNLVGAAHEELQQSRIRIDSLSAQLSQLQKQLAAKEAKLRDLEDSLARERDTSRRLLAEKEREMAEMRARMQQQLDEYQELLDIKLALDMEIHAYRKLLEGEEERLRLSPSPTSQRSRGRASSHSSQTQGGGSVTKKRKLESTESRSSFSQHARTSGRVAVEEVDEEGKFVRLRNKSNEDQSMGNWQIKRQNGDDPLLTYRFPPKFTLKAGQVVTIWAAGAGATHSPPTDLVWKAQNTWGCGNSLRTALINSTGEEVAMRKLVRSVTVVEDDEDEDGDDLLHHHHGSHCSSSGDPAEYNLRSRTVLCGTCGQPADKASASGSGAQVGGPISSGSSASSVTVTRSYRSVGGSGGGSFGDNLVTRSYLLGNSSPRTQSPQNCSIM

T1: ST6GALNAC1 fused to ultraID (UniProt Q9NSC7)
T1 sequence: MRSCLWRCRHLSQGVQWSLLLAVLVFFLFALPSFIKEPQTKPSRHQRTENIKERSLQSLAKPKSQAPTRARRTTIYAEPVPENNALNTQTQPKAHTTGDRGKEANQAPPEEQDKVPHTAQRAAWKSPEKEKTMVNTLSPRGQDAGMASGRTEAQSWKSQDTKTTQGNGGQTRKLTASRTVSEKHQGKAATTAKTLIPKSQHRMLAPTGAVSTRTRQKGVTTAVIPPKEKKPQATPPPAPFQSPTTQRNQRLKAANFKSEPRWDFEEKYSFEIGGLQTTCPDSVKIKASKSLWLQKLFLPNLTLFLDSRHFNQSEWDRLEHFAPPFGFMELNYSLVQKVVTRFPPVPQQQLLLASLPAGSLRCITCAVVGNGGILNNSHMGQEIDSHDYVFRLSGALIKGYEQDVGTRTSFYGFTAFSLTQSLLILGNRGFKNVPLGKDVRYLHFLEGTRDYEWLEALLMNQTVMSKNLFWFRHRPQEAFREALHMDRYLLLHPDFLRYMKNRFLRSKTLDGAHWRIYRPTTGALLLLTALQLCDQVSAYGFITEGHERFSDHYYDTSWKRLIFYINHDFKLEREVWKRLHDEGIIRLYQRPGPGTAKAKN


Columns and labels:
Test in all cases: proximity labelling
[1] = target: miniTurbo-RAB5A (UniProt P20339)
[2] = target: T1, ST6GALNAC1 fused to ultraID
[3] = target: LMNA N-terminally fused to ultraID (UniProt P02545)
[4] = target: LMNA N-terminally fused to TurboID (UniProt P02545)

Row | Binder | binding [1] | binding [2] | other results
1 | DNAJC7 (protein, UniProt Q99615 1-494) MAAAAECDVVMAATEPELLDDQEAKREAETFKEQGNAYYAKKDYNEAYNYYTKAIDMCPKNASYYGNRAATLMMLGRFREALGDAQQSVRLDDSFVRGHLREGKCHLSLGNAMAACRSFQRALELDHKNAQAQQEFKNANAVMEYEKIAETDFEKRDFRKVVFCMDRALEFAPACHRFKILKAECLAMLGRYPEAQSVASDILRMDSTNADALYVRGLCLYYEDCIEKAVQFFVQALRMAPDHEKACIACRNAKALKAKKEDGNKAFKEGNYKLAYELYTEALGIDPNNIKTNAKLYCNRGTVNSKLRKLDDAIEDCTNAVKLDDTYIKAYLRRAQCYMDTEQYEEAVRDYEKVYQTEKTKEHKQLLKNAQLELKKSKRKDYYKILGVDKNASEDEIKKAYRKRALMHHPDRHSGASAEVQKEEEKKFKEVGEAFTILSDPKKKTRYDSGQDLDEEGMNMGDFDPNNIFKAFFGGPGGFSFEASGPGNFFFQFG | binds |  | 
2 | B3GALT6 (protein, UniProt Q96L58 1-329) MKLLRRAWRRRAALGLGTLALCGAALLYLARCAAEPGDPRAMSGRSPPPPAPARAAAFLAVLVASAPRAAERRSVIRSTWLARRGAPGDVWARFAVGTAGLGAEERRALEREQARHGDLLLLPALRDAYENLTAKVLAMLAWLDEHVAFEFVLKADDDSFARLDALLAELRAREPARRRRLYWGFFSGRGRVKPGGRWREAAWQLCDYYLPYALGGGYVLSADLVHYLRLSRDYLRAWHSEDVSLGAWLAPVDVQREHDPRFDTEYRSRGCSNQYLVTHKQSLEDMLEKHATLAREGRLCKREVQLRLSYVYDWSAPPSQCCQRREGIP |  | binds | 
3 | NUP93 (protein, UniProt Q8N1F7 1-819) MDTEGFGELLQQAEQLAAETEGISELPHVERNLQEIQQAGERLRSRTLTRTSQETADVKASVLLGSRGLDISHISQRLESLSAATTFEPLEPVKDTDIQGFLKNEKDNALLSAIEESRKRTFGMAEEYHRESMLVEWEQVKQRILHTLLASGEDALDFTQESEPSYISDVGPPGRSSLDNIEMAYARQIYIYNEKIVNGHLQPNLVDLCASVAELDDKSISDMWTMVKQMTDVLLTPATDALKNRSSVEVRMEFVRQALAYLEQSYKNYTLVTVFGNLHQAQLGGVPGTYQLVRSFLNIKLPAPLPGLQDGEVEGHPVWALIYYCMRCGDLLAASQVVNRAQHQLGEFKTWFQEYMNSKDRRLSPATENKLRLHYRRALRNNTDPYKRAVYCIIGRCDVTDNQSEVADKTEDYLWLKLNQVCFDDDGTSSPQDRLTLSQFQKQLLEDYGESHFTVNQQPFLYFQVLFLTAQFEAAVAFLFRMERLRCHAVHVALVLFELKLLLKSSGQSAQLLSHEPGDPPCLRRLNFVRLLMLYTRKFESTDPREALQYFYFLRDEKDSQGENMFLRCVSELVIESREFDMILGKLENDGSRKPGVIDKFTSDTKPIINKVASVAENKGLFEEAAKLYDLAKNADKVLELMNKLLSPVVPQISAPQSNKERLKNMALSIAERYRAQGISANKFVDSTFYLLLDLITFFDEYHSGHIDRAFDIIERLKLVPLNQESVEERVAAFRNFSDEIRHNLSEVLLATMNILFTQFKRLKGTSPSSSSRPQRVIEDRDSQLRSQARTLITFAGMIPYRTSGDTNARLVQMEVLMN |  |  | binding [3]: binds
4 | CCT2 (protein, UniProt P78371 1-535) MASLSLAPVNIFKAGADEERAETARLTSFIGAIAIGDLVKSTLGPKGMDKILLSSGRDASLMVTNDGATILKNIGVDNPAAKVLVDMSRVQDDEVGDGTTSVTVLAAELLREAESLIAKKIHPQTIIAGWREATKAAREALLSSAVDHGSDEVKFRQDLMNIAGTTLSSKLLTHHKDHFTKLAVEAVLRLKGSGNLEAIHIIKKLGGSLADSYLDEGFLLDKKIGVNQPKRIENAKILIANTGMDTDKIKIFGSRVRVDSTAKVAEIEHAEKEKMKEKVERILKHGINCFINRQLIYNYPEQLFGAAGVMAIEHADFAGVERLALVTGGEIASTFDHPELVKLGSCKLIEEVMIGEDKLIHFSGVALGEACTIVLRGATQQILDEAERSLHDALCVLAQTVKDSRTVYGGGCSEMLMAHAVTQLANRTPGKEAVAMESYAKALRMLPTIIADNAGYDSADLVAQLRAAHSEGNTTAGLDMREGTIGDMAILGITESFQVKRQVLLSAAEAAEVILRVDNIIKAAPRKRVPDHHPC | binds |  | 
5 | ZMPSTE24 (protein, UniProt O75844 1-475) MGMWASLDALWEMPAEKRIFGAVLLFSWTVYLWETFLAQRQRRIYKTTTHVPPELGQIMDSETFEKSRLYQLDKSTFSFWSGLYSETEGTLILLFGGIPYLWRLSGRFCGYAGFGPEYEITQSLVFLLLATLFSALTGLPWSLYNTFVIEEKHGFNQQTLGFFMKDAIKKFVVTQCILLPVSSLLLYIIKIGGDYFFIYAWLFTLVVSLVLVTIYADYIAPLFDKFTPLPEGKLKEEIEVMAKSIDFPLTKVYVVEGSKRSSHSNAYFYGFFKNKRIVLFDTLLEEYSVLNKDIQEDSGMEPRNEEEGNSEEIKAKVKNKKQGCKNEEVLAVLGHELGHWKLGHTVKNIIISQMNSFLCFFLFAVLIGRKELFAAFGFYDSQPTLIGLLIIFQFIFSPYNEVLSFCLTVLSRRFEFQADAFAKKLGKAKDLYSALIKLNKDNLGFPVSDWLFSMWHYSHPPLLERLQALKTMKQH |  |  | binding [4]: binds; binding [3]: binds
6 | B4GAT1 (protein, UniProt O43505 1-415) MQMSYAIRCAFYQLLLAALMLVAMLQLLYLSLLSGLHGQEEQDQYFEFFPPSPRSVDQVKAQLRTALASGGVLDASGDYRVYRGLLKTTMDPNDVILATHASVDNLLHLSGLLERWEGPLSVSVFAATKEEAQLATVLAYALSSHCPDMRARVAMHLVCPSRYEAAVPDPREPGEFALLRSCQEVFDKLARVAQPGINYALGTNVSYPNNLLRNLAREGANYALVIDVDMVPSEGLWRGLREMLDQSNQWGGTALVVPAFEIRRARRMPMNKNELVQLYQVGEVRPFYYGLCTPCQAPTNYSRWVNLPEESLLRPAYVVPWQDPWEPFYVAGGKVPTFDERFRQYGFNRISQACELHVAGFDFEVLNEGFLVHKGFKEALKFHPQKEAENQHNKILYRQFKQELKAKYPNSPRRC |  | binds | 

The next lines start with results.

Row | binding [1] | binding [2] | Binder | other results
7 |  | binds | …2 (protein, UniProt Q8N6G5 1-542) MPRRGLILHTRTHWLLLGLALLCSLVLFMYLLECAPQTDGNASLPGVVGENYGKEYYQALLQEQEEHYQTRATSLKRQIAQLKQELQEMSEKMRSLQERRNVGANGIGYQSNKEQAPSDLLEFLHSQIDKAEVSIGAKLPSEYGVIPFESFTLMKVFQLEMGLTRHPEEKPVRKDKRDELVEVIEAGLEVINNPDEDDEQEDEEGPLGEKLIFNENDFVEGYYRTERDKGTQYELFFKKADLTEYRHVTLFRPFGPLMKVKSEMIDITRSIINIIVPLAERTEAFVQFMQNFRDVCIHQDKKIHLTVVYFGKEGLSKVKSILESVTSESNFHNYTLVSLNEEFNRGRGLNVGARAWDKGEVLMFFCDVDIYFSAEFLNSCRLNAEPGKKVFYPVVFSLYNPAIVYANQEVPPPVEQQLVHKKDSGFWRDFGFGMTCQYRSDFLTIGGFDMEVKGWGGEDVHLYRKYLHGDLIVIRTPVPGLFHLWHEKRCADELTPEQYRMCIQSKAMNEASHSHLGMLVFREEIETHLHKQAYRTNSEAVG | 
8 | binds |  | ST13 (protein, UniProt P50502 1-369) MDPRKVNELRAFVKMCKQDPSVLHTEEMRFLREWVESMGGKVPPATQKAKSEENTKEEKPDSKKVEEDLKADEPSSEESDLEIDKEGVIEPDTDAPQEMGDENAEITEEMMDQANDKKVAAIEALNDGELQKAIDLFTDAIKLNPRLAILYAKRASVFVKLQKPNAAIRDCDRAIEINPDSAQPYKWRGKAHRLLGHWEEAAHDLALACKLDYDEDASAMLKEVQPRAQKIAEHRRKYERKREEREIKERIERVKKAREEHERAQREEEARRQSGAQYGSFPGGFPGGMPGNFPGGMPGMGGGMPGMAGMPGLNEILSDPEVLAAMQDPEVMVAFQDVAQNPANMSKYQSNPKVMNLISKLSAKFGGQA | 
